The exact form of at least one protein or probe is not confirmed. At least one result comes from cells or an extract, where the contact may be indirect.
Tests used:
[1] = target: T1, propionyl-CoA carboxylase subunit alpha (PCCA) (UniProt A0A8I3S647); assay: pull-down (streptavidin beads, western blot); conditions: 50 nM aptamer, WT lysate, bound equally well as from K-RasV12 lysate; tryptamino-dU (trp-dU) replaces dT in the extended part (after the 20-nt forward primer); primer has normal dT; Pull-down: 100 uL MDCK lysate, 50 nM renatured 5'-biotinylated aptamer, 0.75% dextran sulfate, 4 uM competitor in 200 uL PBSMN buffer, 10 min at 25 C; protein in an extract; label: 5' biotin; synthetic backbone; letters put together from the description
[2] = target: T1, propionyl-CoA carboxylase subunit alpha (PCCA); assay: pull-down (streptavidin beads, LC-MS and western blot); conditions: 50 nM aptamer, 0.75% dextran sulfate, 4 uM competitor, K-RasV12 lysate, tryptamino-dU (trp-dU) replaces dT in the extended part (after the 20-nt forward primer), primer has normal dT, Pull-down: 100 uL MDCK lysate, 50 nM renatured 5'-biotinylated aptamer, 4 uM competitor in 200 uL PBSMN buffer, 10 min at 25 C, protein in an extract, label: 5' biotin, synthetic backbone, letters put together from the description

Sequence: GGGAGATCACTTACGGCACCGCGGCTCGTGGGTCTACGTGGCCGAGAGGACGAGGGGGCTGCCCCAAGGCACGGGTCAG [ABN-01]
- binding result [1]: binds
- binding result [2]: binds
